In the supplement of paper PMC12067093, “Discovery and optimisation of a covalent ligand for TRIM25 and its application to targeted protein ubiquitination” (Chemical Science, 2025):
The other results are listed elsewhere or left out.

By UniProt entry, the sequences of proteins in these tests, tags left out. Where a name states a change or a piece, a line headed by the entry shows the natural chain unless it says otherwise.
UniProt Q9H4E7, whole entry, looked up: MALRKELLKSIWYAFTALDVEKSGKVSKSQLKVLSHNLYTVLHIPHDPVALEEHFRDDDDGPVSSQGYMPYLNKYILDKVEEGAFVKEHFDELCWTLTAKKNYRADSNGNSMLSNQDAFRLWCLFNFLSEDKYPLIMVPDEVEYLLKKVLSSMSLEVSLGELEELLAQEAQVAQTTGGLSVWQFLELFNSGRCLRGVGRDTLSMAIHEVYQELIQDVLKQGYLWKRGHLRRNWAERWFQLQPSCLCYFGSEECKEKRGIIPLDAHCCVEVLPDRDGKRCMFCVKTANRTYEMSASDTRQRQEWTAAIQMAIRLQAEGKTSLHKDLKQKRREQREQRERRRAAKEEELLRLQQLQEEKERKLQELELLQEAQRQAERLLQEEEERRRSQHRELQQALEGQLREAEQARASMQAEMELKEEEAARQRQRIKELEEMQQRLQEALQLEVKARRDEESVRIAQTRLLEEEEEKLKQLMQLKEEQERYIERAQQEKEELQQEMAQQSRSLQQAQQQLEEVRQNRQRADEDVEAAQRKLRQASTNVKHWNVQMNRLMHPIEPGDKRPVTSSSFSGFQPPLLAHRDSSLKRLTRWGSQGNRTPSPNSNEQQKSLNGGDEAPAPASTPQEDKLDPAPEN
UniProt Q16531, whole entry, looked up: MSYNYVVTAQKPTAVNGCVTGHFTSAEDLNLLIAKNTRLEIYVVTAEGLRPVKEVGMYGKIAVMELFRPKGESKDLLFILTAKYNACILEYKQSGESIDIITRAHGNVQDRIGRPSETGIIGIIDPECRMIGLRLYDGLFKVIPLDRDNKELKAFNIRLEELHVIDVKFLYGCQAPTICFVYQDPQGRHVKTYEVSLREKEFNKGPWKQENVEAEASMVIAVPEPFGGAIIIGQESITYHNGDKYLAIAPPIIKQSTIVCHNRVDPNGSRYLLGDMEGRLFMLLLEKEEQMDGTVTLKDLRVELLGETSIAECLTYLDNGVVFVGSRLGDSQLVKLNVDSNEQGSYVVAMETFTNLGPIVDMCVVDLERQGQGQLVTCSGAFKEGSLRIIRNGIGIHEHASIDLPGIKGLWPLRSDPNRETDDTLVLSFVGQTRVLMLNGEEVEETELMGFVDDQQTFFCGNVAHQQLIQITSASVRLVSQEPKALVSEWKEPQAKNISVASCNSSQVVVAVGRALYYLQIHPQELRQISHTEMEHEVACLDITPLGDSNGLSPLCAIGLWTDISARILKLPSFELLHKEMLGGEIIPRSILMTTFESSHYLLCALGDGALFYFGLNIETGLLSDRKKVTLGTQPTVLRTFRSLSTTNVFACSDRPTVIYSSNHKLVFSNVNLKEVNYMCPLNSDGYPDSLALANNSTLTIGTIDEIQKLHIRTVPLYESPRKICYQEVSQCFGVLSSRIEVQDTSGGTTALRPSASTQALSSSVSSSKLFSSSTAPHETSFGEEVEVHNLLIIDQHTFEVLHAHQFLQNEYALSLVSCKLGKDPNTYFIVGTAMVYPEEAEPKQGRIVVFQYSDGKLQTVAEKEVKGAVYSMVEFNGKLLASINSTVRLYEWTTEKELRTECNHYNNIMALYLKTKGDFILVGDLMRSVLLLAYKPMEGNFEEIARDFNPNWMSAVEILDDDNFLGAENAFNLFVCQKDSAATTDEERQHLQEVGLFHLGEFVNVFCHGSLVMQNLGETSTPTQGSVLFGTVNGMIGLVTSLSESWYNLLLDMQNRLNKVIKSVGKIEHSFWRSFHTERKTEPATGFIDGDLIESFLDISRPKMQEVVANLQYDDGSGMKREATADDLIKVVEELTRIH
UniProt Q9BQ39: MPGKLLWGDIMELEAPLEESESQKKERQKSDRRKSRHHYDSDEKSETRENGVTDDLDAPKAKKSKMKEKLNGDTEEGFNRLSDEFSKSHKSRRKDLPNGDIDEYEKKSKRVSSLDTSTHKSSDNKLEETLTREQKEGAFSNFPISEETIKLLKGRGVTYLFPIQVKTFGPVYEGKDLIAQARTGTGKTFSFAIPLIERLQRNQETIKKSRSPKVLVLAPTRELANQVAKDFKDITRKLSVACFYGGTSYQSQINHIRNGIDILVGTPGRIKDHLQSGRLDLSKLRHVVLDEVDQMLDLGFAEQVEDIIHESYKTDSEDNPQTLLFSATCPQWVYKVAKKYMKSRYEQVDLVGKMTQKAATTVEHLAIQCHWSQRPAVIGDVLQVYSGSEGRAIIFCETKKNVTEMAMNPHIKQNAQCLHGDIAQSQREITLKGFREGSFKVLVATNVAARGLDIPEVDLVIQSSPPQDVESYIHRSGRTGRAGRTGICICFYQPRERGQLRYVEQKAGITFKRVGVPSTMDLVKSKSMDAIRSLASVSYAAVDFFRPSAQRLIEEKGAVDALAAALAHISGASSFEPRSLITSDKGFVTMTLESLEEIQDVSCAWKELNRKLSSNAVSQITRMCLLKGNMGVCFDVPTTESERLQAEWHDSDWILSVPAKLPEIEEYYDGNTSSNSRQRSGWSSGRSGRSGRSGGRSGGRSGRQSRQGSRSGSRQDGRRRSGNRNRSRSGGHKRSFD
UniProt A2RUS2: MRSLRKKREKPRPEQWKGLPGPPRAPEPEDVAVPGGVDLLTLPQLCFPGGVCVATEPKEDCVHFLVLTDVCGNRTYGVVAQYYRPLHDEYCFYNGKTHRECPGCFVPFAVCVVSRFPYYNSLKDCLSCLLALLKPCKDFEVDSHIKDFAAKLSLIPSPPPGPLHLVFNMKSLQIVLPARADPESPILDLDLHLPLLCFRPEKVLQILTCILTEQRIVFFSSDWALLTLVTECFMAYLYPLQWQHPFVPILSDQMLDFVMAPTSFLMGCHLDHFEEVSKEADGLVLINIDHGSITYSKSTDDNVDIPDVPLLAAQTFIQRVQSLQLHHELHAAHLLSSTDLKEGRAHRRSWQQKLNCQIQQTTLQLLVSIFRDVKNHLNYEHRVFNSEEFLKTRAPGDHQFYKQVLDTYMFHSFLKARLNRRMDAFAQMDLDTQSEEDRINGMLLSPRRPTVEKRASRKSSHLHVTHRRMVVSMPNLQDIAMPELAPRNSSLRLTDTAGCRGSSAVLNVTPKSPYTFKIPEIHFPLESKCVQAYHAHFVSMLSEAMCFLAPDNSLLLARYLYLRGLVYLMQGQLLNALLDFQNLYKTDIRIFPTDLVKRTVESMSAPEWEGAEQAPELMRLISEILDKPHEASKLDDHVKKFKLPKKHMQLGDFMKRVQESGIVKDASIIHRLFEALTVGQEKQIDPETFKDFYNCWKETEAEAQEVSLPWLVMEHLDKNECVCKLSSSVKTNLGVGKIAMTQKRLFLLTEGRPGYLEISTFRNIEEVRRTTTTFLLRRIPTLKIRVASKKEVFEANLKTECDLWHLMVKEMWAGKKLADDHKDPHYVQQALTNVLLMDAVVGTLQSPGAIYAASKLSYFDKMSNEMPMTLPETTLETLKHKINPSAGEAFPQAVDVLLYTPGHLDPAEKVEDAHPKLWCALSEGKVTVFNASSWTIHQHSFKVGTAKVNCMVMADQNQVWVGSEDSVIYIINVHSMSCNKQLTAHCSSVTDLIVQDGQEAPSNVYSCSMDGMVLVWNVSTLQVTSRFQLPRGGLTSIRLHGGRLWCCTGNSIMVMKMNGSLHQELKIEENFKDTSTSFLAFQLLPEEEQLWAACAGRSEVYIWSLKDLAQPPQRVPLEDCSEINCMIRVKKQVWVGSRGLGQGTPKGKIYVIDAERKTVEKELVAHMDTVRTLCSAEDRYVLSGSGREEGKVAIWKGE
UniProt P23743: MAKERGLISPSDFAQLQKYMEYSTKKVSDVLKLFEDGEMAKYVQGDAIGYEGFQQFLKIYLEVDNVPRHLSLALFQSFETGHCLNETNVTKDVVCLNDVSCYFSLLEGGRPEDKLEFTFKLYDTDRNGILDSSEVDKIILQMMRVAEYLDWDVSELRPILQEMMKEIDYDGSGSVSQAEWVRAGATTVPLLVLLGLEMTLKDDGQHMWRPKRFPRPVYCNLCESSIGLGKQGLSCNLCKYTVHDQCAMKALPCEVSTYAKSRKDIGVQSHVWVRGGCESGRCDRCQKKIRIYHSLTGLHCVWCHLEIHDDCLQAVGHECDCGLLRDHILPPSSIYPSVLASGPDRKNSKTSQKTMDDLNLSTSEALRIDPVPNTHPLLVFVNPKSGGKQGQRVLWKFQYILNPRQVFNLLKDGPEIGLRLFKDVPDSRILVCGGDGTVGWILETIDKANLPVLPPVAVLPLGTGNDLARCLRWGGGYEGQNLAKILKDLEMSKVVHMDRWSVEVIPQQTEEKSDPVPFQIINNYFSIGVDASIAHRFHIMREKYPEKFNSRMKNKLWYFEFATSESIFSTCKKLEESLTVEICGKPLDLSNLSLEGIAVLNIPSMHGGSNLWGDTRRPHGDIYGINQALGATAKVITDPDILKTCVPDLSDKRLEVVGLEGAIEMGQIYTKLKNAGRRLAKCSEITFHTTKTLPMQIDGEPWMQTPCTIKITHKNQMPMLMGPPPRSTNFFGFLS
UniProt Q5H9U9: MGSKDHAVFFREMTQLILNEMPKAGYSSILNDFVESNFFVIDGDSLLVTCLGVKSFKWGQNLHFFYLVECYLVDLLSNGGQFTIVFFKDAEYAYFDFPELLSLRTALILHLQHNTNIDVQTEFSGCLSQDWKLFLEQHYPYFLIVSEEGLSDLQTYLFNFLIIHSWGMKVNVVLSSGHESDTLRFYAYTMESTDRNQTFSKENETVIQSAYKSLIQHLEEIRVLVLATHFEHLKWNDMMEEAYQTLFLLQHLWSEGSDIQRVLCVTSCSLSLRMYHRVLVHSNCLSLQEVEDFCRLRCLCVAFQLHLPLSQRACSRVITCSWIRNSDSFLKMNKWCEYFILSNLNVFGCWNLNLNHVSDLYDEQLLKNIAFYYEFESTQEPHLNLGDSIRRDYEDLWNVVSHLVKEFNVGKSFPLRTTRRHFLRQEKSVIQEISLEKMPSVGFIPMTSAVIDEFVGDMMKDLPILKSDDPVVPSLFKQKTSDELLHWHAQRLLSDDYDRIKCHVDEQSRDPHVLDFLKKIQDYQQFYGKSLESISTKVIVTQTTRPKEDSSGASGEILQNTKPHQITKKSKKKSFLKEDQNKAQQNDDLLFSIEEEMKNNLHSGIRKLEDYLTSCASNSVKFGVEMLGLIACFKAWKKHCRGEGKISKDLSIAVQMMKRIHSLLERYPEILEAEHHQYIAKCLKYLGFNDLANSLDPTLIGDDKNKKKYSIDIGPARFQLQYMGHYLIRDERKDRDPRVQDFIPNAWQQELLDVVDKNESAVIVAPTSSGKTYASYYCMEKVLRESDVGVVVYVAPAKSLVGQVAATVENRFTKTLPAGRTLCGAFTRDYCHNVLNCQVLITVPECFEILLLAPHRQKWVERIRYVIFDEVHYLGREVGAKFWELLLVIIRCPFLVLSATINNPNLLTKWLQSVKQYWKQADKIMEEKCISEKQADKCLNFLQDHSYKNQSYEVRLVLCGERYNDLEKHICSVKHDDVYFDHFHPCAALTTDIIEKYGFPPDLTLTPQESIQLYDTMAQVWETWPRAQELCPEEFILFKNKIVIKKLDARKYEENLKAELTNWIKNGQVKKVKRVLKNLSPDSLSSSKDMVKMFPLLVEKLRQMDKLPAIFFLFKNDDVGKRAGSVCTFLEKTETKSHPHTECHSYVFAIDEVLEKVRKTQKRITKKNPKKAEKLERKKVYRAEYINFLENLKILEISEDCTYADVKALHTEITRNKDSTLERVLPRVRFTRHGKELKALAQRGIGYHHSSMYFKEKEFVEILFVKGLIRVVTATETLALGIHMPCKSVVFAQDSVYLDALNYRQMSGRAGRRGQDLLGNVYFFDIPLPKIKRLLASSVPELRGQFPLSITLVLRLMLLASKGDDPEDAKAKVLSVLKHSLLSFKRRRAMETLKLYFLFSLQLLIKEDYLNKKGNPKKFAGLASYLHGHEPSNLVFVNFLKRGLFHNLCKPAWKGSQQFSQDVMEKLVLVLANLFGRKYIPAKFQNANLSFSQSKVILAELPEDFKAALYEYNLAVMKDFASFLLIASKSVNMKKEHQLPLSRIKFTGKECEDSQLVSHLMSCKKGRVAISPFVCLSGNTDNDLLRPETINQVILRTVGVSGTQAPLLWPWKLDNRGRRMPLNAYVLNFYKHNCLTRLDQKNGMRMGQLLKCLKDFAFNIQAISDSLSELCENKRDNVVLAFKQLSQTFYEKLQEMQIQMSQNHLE

Compound: CC1Cc2ccccc2N1C(=O)C1CCCN(C1)C(=O)CCl (mixture of isomers) [TRIM25 ligand 11 (diastereomer mixture)]
Assay: probe-labelled cysteine peptide fold change vs DMSO (competition) (log2 fold change); higher = less target engagement (more negative = stronger competition)
Settings: THP-1, incubation time: 4 h
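Note: competitive chemoproteomic profiling in live THP-1 cells with an iodoacetamide desthiobiotin (IA-DTB) probe, comparing probe-labelled peptide intensities in compound-treated cells against DMSO-treated controls.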

Target | probe-labelled cysteine peptide fold change (10 µM) | probe-labelled cysteine peptide fold change (50 µM)
DDX1_Q92499_145_HYYEVSCHDQGLCR (UniProt Q92499) | 0.228 | -0.108
DDX17_Q92841_447_DGWPAMCIHGDK (UniProt Q92841) | -0.162 | -0.231
DEF6_Q9H4E7_246_WFQLQPSCLCYFGSEECK (UniProt Q9H4E7) | -0.0358 | 0.14
DENND4C_Q5VZ89_1086_ILTAALTCPK (UniProt Q5VZ89) | -0.124 | -0.238
DDB1_Q16531_725+732_KICYQEVSQCFGVLSSR (UniProt Q16531) | -0.109 | -0.26
DGCR8_Q8WYQ5_657_SEYVMACGK (UniProt Q8WYQ5) | -0.121 | -0.101
DDX50_Q9BQ39_242_LSVACFYGGTSYQSQINHIR (UniProt Q9BQ39) | 0.0149 | 0.092
DENND3_A2RUS2_801_TECDLWHLMVK (UniProt A2RUS2) | -0.0633 | -0.108
DDB1_Q16531_903_ELRTECNHYNNIMALYLK (UniProt Q16531) | -0.546 | -0.233
DGKA_P23743_432_ILVCGGDGTVGWILETIDK (UniProt P23743) | -0.0114 | 0.00463
DENND4B_O75064_180_GEGTPHTYCR (UniProt O75064) | 0.0109 | 0.131
DDX5_P17844_191_ELAQQVQQVAAEYCR (UniProt P17844) | 0.0856 | 0.145
DDX60L_Q5H9U9_1201_ILEISEDCTYADVK (UniProt Q5H9U9) | 0.301 | 0.00526
DENND3_A2RUS2_723_NECVCK (UniProt A2RUS2) | -0.0349 | 0.115

Pulled one by one from above (2):
Target | probe-labelled cysteine peptide fold change (10 µM) | probe-labelled cysteine peptide fold change (50 µM)
DGKA_P23743_432_ILVCGGDGTVGWILETIDK (UniProt P23743) | -0.0114 | 0.00463
DEF6_Q9H4E7_246_WFQLQPSCLCYFGSEECK (UniProt Q9H4E7) | -0.0358 | 0.14
